Assay results published in PubChem BioAssay AID651640 (Broad Institute, 2012).
Out of some 350,000 compounds screened, about 6,000 (1.7%) were called active. The inconclusive results got no clear call from the source; some entries with a clear call stand among them for comparison. Rule as the data show it: active = CPE inhibition above about 20% (passing the limit was not always enough); inconclusive = no clear call, values can overlap the other calls; tested in BHK-21 cells.

Assay: protection of cells from dengue 2 killing – plate reader, single concentration, primary screen (AID 651640);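 also: 0% = median of neutral control wells and 100% = median of positive control wells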
Details: DENV2-infected cells, cytopathic effect rescue, at 9.99 µM, stronger effect = higher value

| Structure (SMILES) | CPE inhibition |
| --- | --- |
| NS(=O)(=O)c1ccc(CCNC(=O)C2CCCN2C(=O)c2cccs2)cc1 (stereo not drawn) | active: 94.7% |
| O=C(CSC1=NS(=O)(=O)c2cc(F)ccc2N1)Nc1ccc(F)cc1 | inactive: -6.73% |
| C[C@@H]1CN([C@@H](C)CO)C(=O)c2cccc(NS(=O)(=O)c3ccccc3)c2O[C@H]1CN(C)Cc1ccc(Oc2ccccc2)cc1 | inconclusive: 65.8% |
| CN(CC(=O)Nc1ccc(N2CCOCC2)cc1)C(=O)C12CC3CC(CC(C3)C1)C2 | inconclusive: 29.6% |
| S=C(NCC1CCCCC1)Nc1ccc(Oc2ccccc2)cc1 | inactive: -1.87% |
| Cc1ncc(CO)c2c1Oc1nc(-c3ccccc3)nc(SCC(=O)Nc3cccc(O)c3)c1C2 | inconclusive: 35.6% |
| C[C@H]1CN([C@@H](C)CO)S(=O)(=O)c2ccc(-c3ccncc3)cc2O[C@@H]1CN(C)C(=O)c1ccc2c(c1)OCO2 | active: 26.2% |
| COc1ccccc1N(CC(=O)NCCSCc1ccc(Cl)cc1)S(C)(=O)=O | inconclusive: 40.1% |
| Cc1cc(-c2ccccc2)n2ncc(-c3ccccc3)c2n1 | inactive: -6.16% |
| CO[C@@H]1CN(C)C(=O)c2cc(NC(C)=O)ccc2OC[C@@H](C)N(C(=O)CC2CC2)C[C@H]1C | active: 27.1% |
| O=[N+]([O-])c1ccc(OCCOc2ccccc2/C=N/n2cnnc2)cc1 | inactive: -7.86% |
| COc1ccc(OC)c(NC(=O)C2(C)CCN2C(=O)Cc2ccccc2)c1 (stereo not drawn) | inconclusive: 22.2% |
| Cc1noc(C)c1NC(=O)N(C)C[C@H]1Oc2ccc(NS(=O)(=O)c3cccs3)cc2C(=O)N([C@@H](C)CO)C[C@@H]1C | active: 38.5% |
| CCC(=O)N1CC2(C1)[C@H](c1ccccc1)[C@H](CO)N2CC1CCOCC1 | active: 70.4% |
| Cc1ccc(CS(=O)Cc2ccc(C(=O)N3CCN(c4ccccn4)CC3)o2)cc1 (stereo not drawn) | inactive: 7.13% |
| NC(=O)CC(NC(=O)Cc1ccc(Cl)cc1)c1ccc(NCCOc2ccccc2)c([N+](=O)[O-])c1 (stereo not drawn) | inactive: 5.43% |
| COc1ccc(S(=O)(=O)N(C)CC(=O)NCCc2ccccc2)cc1OC | inconclusive: 32.6% |
| Cn1c(=O)n(C)c2cc(N3CCOCC3)c(NC(=O)c3ccc(F)cc3)cc21 | active: 41.6% |
| COc1c2ccccc2nn1C(C)C | inconclusive: 36.4% |
| C[C@@H]1CN([C@@H](C)CO)C(=O)c2cccc(NC(=O)C3CCCCC3)c2O[C@H]1CN(C)CC1CCCCC1 | inactive: 16.9% |
| CC[C@]12CCCN3CCc4c(n(c5ccccc45)[C@](O)(C(=O)OC)C1)[C@@H]32 | inconclusive: 22% |
| Cc1ccccc1S(=O)(=O)N1C[C@@H](O)COC[C@H]2O[C@H](CC(=O)O)CC[C@@H]21 | inactive: 0.165% |
| CC=Cc1ccc2n(c1=O)C[C@H]1[C@H](CO)[C@@H](C(=O)NCC)[C@@H]2N1CC1CCOCC1 (mixture of isomers) | inactive: -1.42% |
| Nc1ncnc2c1c(-c1ccc(Oc3ccccc3)cc1)cn2C1CCCC1 | inconclusive: 29.2% |
| COc1ccc(-c2ccc3n(c2=O)C[C@H]2[C@H](CO)[C@@H](C(=O)NCCN4CCCCC4)N(C)[C@@H]32)cc1 | active: 33.5% |

A draw from above in order of formula weight, high to low.

| Structure (SMILES) | CPE inhibition |
| --- | --- |
| NC(=O)CC(NC(=O)Cc1ccc(Cl)cc1)c1ccc(NCCOc2ccccc2)c([N+](=O)[O-])c1 (stereo not drawn) | inactive: 5.43% |
| COc1ccccc1N(CC(=O)NCCSCc1ccc(Cl)cc1)S(C)(=O)=O | inconclusive: 40.1% |
| COc1ccc(S(=O)(=O)N(C)CC(=O)NCCc2ccccc2)cc1OC | inconclusive: 32.6% |
| Cn1c(=O)n(C)c2cc(N3CCOCC3)c(NC(=O)c3ccc(F)cc3)cc21 | active: 41.6% |
| Cc1cc(-c2ccccc2)n2ncc(-c3ccccc3)c2n1 | inactive: -6.16% |

(listing goes on)

| Structure (SMILES) | CPE inhibition |
| --- | --- |
| CC(=O)C1CCC2C3CC(C)C4=CC(=O)CCC4(C)C3C(=O)CC12C (stereo not drawn) | inconclusive: 35% |
| CO[C@@H]1CN(C)C(=O)c2cc(NC(=O)c3ccccc3F)ccc2OC[C@H](C)N(CC2CC2)C[C@@H]1C | active: 42.6% |
| O=C(CCN1CCCCC1)NCC[C@@H]1CC[C@H](NC(=O)C2CCOCC2)[C@@H](CO)O1 | inactive: 2.83% |
| C/C=C/c1ccc([C@@H]2[C@@H](CO)N(C(=O)COC)[C@@H]2CNC(=O)CC)cc1 | inactive: 4.62% |
| COc1ccc(NC(=O)Nc2ccc3c(c2)C(=O)N([C@H](C)CO)C[C@H](C)[C@H](CN(C)S(=O)(=O)c2ccc(Cl)cc2)OCCCC[C@@H](C)O3)cc1 | inconclusive: 44.3% |
| CCOc1cccc2sc(N(CCCN(C)C)C(=O)c3ccc(S(=O)(=O)N4CCc5ccccc5C4)cc3)nc12 | inactive: 2.08% |
| O=C(NCC1CCCN1S(=O)(=O)c1cccs1)c1ccc([N+](=O)[O-])cc1 (stereo not drawn) | inconclusive: 26.8% |
| C[C@@H]1CN([C@@H](C)CO)S(=O)(=O)c2ccc(-c3ccncc3)cc2O[C@@H]1CN(C)C(=O)CN(C)C | inconclusive: 30.3% |
| c1ccc(-c2ccc3cnccc3n2)cc1 | inconclusive: 20.4% |
| Cc1nc(N2CCN(c3ccccn3)CC2)c2c(C)c(C(=O)N3CCN(c4ccc(F)cc4)CC3)sc2n1 | inactive: 0.391% |
| C[C@@H]1CN([C@H](C)CO)C(=O)c2cc(NC(=O)Nc3cccc4ccccc34)ccc2O[C@@H]1CN(C)S(=O)(=O)c1ccc(Cl)cc1 | inactive: -10.2% |
| O=C(CCN1C(=O)c2ccccc2C1=O)CN1CCOCC1 | inconclusive: 61.5% |
| CSC1=N/C(=C/c2cccnc2)C(=O)N1Cc1ccc(Cl)cc1 | inconclusive: 23.2% |
| OC(c1ccccc1)c1nc(-c2cccs2)cs1 (stereo not drawn) | inconclusive: 30.1% |
| C[C@@H](C(=O)NCCc1ccccc1)N1C(=O)N2CCc3c([nH]c4ccccc34)[C@@]2(C)C1=O | active: 36.7% |
| C[C@@H]1CN([C@H](C)CO)C(=O)c2cc(NS(=O)(=O)c3ccccc3)ccc2O[C@H]1CN(C)Cc1ccc(-c2ccccc2)cc1 | inconclusive: 28.4% |
| C[C@H]1CN([C@@H](C)CO)C(=O)Cc2cc(NC(=O)C3CCCCC3)ccc2O[C@H]1CN(C)Cc1ccc(C(=O)Nc2ccccc2N)cc1 | inconclusive: 24.9% |
| O=C(C[C@H]1C[C@@H]2c3cc(NS(=O)(=O)c4ccc(F)cc4)ccc3O[C@@H]2[C@@H](CO)O1)NCc1ccc(Cl)cc1 | inactive: 9.89% |
| C[C@@H]1CN([C@H](C)CO)C(=O)c2cc(C#Cc3cccc(F)c3)cnc2O[C@H]1CN(C)CC1CCCC1 | inconclusive: 13.8% |
| O=C(C[C@@H]1CC[C@@H]2[C@H](COC[C@H](O)CN2CC2CC2)O1)NCC1CC1 | inconclusive: 63.1% |
| C[C@@H]1CCCCO[C@@H](CN(C)C(=O)Nc2ccc(C(F)(F)F)cc2)[C@@H](C)CN([C@H](C)CO)C(=O)c2cc(NC(=O)Cc3ccccc3)ccc2O1 | inconclusive: 20.7% |
| O=[N+]([O-])c1cccc(S(=O)(=O)/N=C(/Nc2ccccc2)c2ccccc2)c1 | inconclusive: 20.5% |
| CC(C)CCNC(=O)c1cc(S(=O)(=O)N2CCC3(CC2)OCCO3)ccc1F | inconclusive: 28.2% |
| Cc1ccc(CNC(=O)c2cc(-c3cc(C)cc(C)c3O)n[nH]2)cc1 | inconclusive: 28% |
| CN(C#N)c1nccc(-c2cccs2)n1 | inactive: -2.14% |

Laid out differently: two of the compounds above.
Structure (SMILES)	CPE inhibition
CSC1=N/C(=C/c2cccnc2)C(=O)N1Cc1ccc(Cl)cc1	inconclusive: 23.2%
C[C@@H](C(=O)NCCc1ccccc1)N1C(=O)N2CCc3c([nH]c4ccccc34)[C@@]2(C)C1=O	active: 36.7%

Going on with the list:

| Structure (SMILES) | CPE inhibition |
| --- | --- |
| COc1ccc(S(=O)(=O)NC(=O)C2(C)CCN2C(=O)Cc2ccccc2)cc1OC (stereo not drawn) | inconclusive: 38.8% |
| C[C@@H]1CCCCO[C@H](CN(C)C(=O)Nc2ccc3c(c2)OCO3)[C@H](C)CN([C@H](C)CO)C(=O)c2cc(NS(=O)(=O)c3ccccc3)ccc2O1 | inconclusive: 38% |
| C[C@H](CO)N1C[C@H](C)[C@@H](CN(C)C(=O)Nc2ccc3c(c2)OCO3)Oc2ccc(NS(C)(=O)=O)cc2CC1=O | active: 30.6% |
| CC(=O)Nc1ccc(S(=O)(=O)N2CCc3c(Cl)cccc3C2)cc1 | inconclusive: 46% |
| COc1cccc(C#Cc2cnc3c(c2)C(=O)N([C@H](C)CO)C[C@H](C)[C@@H](CN(C)C(C)=O)O3)c1 | active: 23.6% |
| CCc1cc2cc(C)ccc2nc1SCC(=O)NNC(=O)c1ccco1 | inconclusive: 23.1% |
| COC(=O)C1CCC(=S)N1C(=O)c1ccccc1 (stereo not drawn) | inactive: -2.85% |
| COCC#Cc1ccc2c(c1)O[C@@H](CN(C)C(=O)C1CCCCC1)[C@H](C)CN([C@@H](C)CO)S2(=O)=O | inconclusive: 42.8% |
| CC=Cc1ccc2n(c1=O)C[C@@H]1[C@@H](CO)[C@H](C(=O)N[C@H](C)c3ccccc3)N(C(=O)c3cnccn3)[C@H]21 (mixture of isomers) | inconclusive: 20.1% |
| CC1CCC(NC(=O)C2COc3ccccc3O2)CC1 (stereo not drawn) | inconclusive: 38% |
| O=[N+]([O-])c1cccc(COc2ccccc2CN2CCCC2)c1 | active: 58% |
| CNC(=O)C[C@H]1CC[C@H]2[C@@H](COC[C@@H](O)CN2Cc2ccccc2F)O1 | inactive: -2.78% |
| Cc1ccc(NC(=O)NC2OC(=O)c3ccccc32)cc1 (stereo not drawn) | inconclusive: 20.2% |
| CCc1ccccc1OCC(=O)Nc1ccc(N2CCCC2)cc1C | inactive: 6.29% |
| COc1ccc(Cc2nnc(SCC(=O)N(C)c3ccccc3)o2)cc1 | inconclusive: 51.1% |
| N/C(=N\OC(=O)c1cc(Br)ccc1Cl)c1ccccn1 | inactive: 0.285% |
| C[C@H](CO)N1C[C@H](C)[C@H](CN(C)C(=O)Nc2cccc3ccccc23)Oc2c(NC(=O)c3ccc(-c4nccs4)cc3)cccc2C1=O | inconclusive: 41.2% |
| Cc1cc(NC(=O)NC2CC(=O)N(c3ccc4c(c3)OCCO4)C2)no1 (stereo not drawn) | inconclusive: 24.7% |
| Cn1c(C(=O)N/N=C/c2ccccc2)cc2ccccc21 | active: 88.4% |
| Cc1ccc(S(=O)(=O)N2CCCNCC2)cc1 | active: 23.4% |
| C[C@H]1CN([C@@H](C)CO)C(=O)c2cc(-c3ccc(F)cc3)cnc2O[C@@H]1CN(C)C(=O)Cc1ccccc1 | inactive: 6.73% |
| COc1ccc(NC(=O)NNC(=O)COc2ccc([N+](=O)[O-])c(C)c2)cc1OC | inconclusive: 21.9% |
| CC(C)(C)OC(=O)NCCOCCOCCNc1ncnc2ccc(Br)cc12 | active: 20.1% |
